Results deposited as PubChem BioAssay AID652248 (Drosophila RNAi Screening Center, 2013)
Screen: 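Kinases and phosphatases whose loss pushes fly blood cells toward elongated shapes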 (primary screen). Cells: cultured Drosophila hemocytes. Reagents: long dsRNA against Drosophila genes. Measured: 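Automated microscopy of stained actin, tubulin and nuclei; single-cell shape measures assigned to five reference shape types, giving a score per dsRNA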. Direction: elongated score: higher = more elongated bipolar cells; normal round score: higher = more normal rounded cells; teardrop score: higher = more small teardrop-shaped cells. Hit rule: 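Hits show a significant increase of elongated cells; higher rank given where elongated cells rose as other shape types fell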.
In all, the deposit lists 863 reagents; shown is an unselected part. 32 of them (3.7%) were called active. 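Calls also used reproducibility and a similarity ranking whose scores are not deposited; many active genes show only modest elongated scores.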 Names joined by + are all predicted targets of the reagent. Not given: the amount of reagent, the time to read-out.

no.	gene	dsRNA	elongated score, rep 1	elongated score, rep 2	normal round score, rep 1	teardrop score, rep 1	Call
1	Magi	DRSC04247	0.54		-0.31	0.55	inactive
2	Magi	DRSC04451	-0.33		-0.2	0.7	inactive
3	Magi	DRSC26209	-0.53		0.58	-0.73	inactive
4	Ddr (Discoidin domain receptor)	DRSC02150	-0.53		0.77	-1.2	inactive
5	Ddr (Discoidin domain receptor)	DRSC03229	3.07	-0.53	-2.28	1.67	inactive
6	Ddr (Discoidin domain receptor)	DRSC03230	-0.43		-0.02	0.56	inactive
7	Ddr (Discoidin domain receptor)	DRSC22818	0.42		-2.27	3.33	inactive
8	Taf1 (TBP-associated factor 1)	DRSC12607	-0.28		-1.58	2.65	inactive
9	Taf1 (TBP-associated factor 1)	DRSC29806	0.81		-0.38	-0.2	inactive
10	Ssl (Suppressor of Stellate-like)	DRSC04657	-0.53		0.74	-0.6	inactive
11	Ssl (Suppressor of Stellate-like)	DRSC26276	-0.41		0.41	-0.24	inactive
12	CycC (Cyclin C)	DRSC16619	-0.27		0.19	-0.29	inactive
13	Pink1 (PTEN-induced putative kinase 1)	DRSC18361	-0.53	0.25	-0.48	0.65	inactive
14	PTP-ER (Protein tyrosine phosphatase-ERK/Enhancer of Ras1)	DRSC04636	-0.2		-0.73	1.26	inactive
15	PTP-ER (Protein tyrosine phosphatase-ERK/Enhancer of Ras1)	DRSC23325	0.39		-1.9	2.39	inactive
16	PTP-ER (Protein tyrosine phosphatase-ERK/Enhancer of Ras1)	DRSC28263	-0.08		-0.61	1.19	inactive
17	Egfr (Epidermal growth factor receptor)	DRSC03871	-0.09		0	0.25	inactive
18	Egfr (Epidermal growth factor receptor)	DRSC04613	0.4		-1.06	1.52	inactive
19	gek (genghis khan)	DRSC04688	1		-0.66	0.2	inactive
20	Pka-C1 (Protein kinase, cAMP-dependent, catalytic subunit 1)	DRSC03399	-0.31		0.25	-0.03	inactive
21	Pka-C1 (Protein kinase, cAMP-dependent, catalytic subunit 1)	DRSC23314	-0.41		-0.99	1.03	inactive
22	Pka-C1 (Protein kinase, cAMP-dependent, catalytic subunit 1)	DRSC28268	1.76		-5.51	6.84	inactive
23	Pkn (Protein kinase N)	DRSC06810	-0.53		-0.09	0.7	inactive
24	Pkn (Protein kinase N)	DRSC25936	0.93		-0.95	1.1	inactive
25	Acph-1 (Acid phosphatase 1)	DRSC14103	-0.27		-0.83	0.32	inactive
26	niki (nimA-like kinase)	DRSC14285	-0.26	-0.15	0.4	-0.22	inactive
27	key (kenny)	DRSC04285	-0.32		-0.71	0.44	inactive
28	babo (baboon)	DRSC07581	-0.21		-0.73	1.44	inactive
29	Pka-C2 (Protein kinase, cAMP-dependent, catalytic subunit 2)	DRSC16790	-0.41		-3.97	-1.13	inactive
30	Pka-C2 (Protein kinase, cAMP-dependent, catalytic subunit 2)	DRSC23310	-0.53		0.17	-0.09	inactive
31	Pka-C2 (Protein kinase, cAMP-dependent, catalytic subunit 2)	DRSC29076	2.25		-1.74	1.24	inactive
32	Strn-Mlck (Stretchin-Mlck)	DRSC05032	-0.1		-0.43	0.2	inactive
33	Strn-Mlck (Stretchin-Mlck)	DRSC05598	-0.53	0.32	-0.26	0.94	inactive
34	Strn-Mlck (Stretchin-Mlck)	DRSC07471	-0.12		0.74	-0.7	inactive
35	CG7115	DRSC02000	-0.36		0.79	-0.63	inactive
36	CG7115	DRSC29878	1.99		-0.95	0.05	inactive
37	Pdxk (Pyridoxal kinase)	DRSC10419	-0.05		-0.89	0.1	inactive
38	Ocrl (Oculocerebrorenal syndrome of Lowe)	DRSC18576	-0.53		-1.16	2.22	inactive
39	CG3008	DRSC00560	-0.16		-0.78	1.53	inactive
40	fab1 + CG33981	DRSC07412	-0.39		-0.53	0.75	inactive
41	fab1 + CG33981	DRSC28045	-0.53		-0.22	-0.21	inactive
42	LIMK1 (LIM domain kinase 1)	DRSC19811	0.3		-1.03	1.16	inactive
43	SNF4Agamma (SNF4/AMP-activated protein kinase gamma subunit)	DRSC13461	1.22		-2.24	0.92	inactive
44	SNF4Agamma (SNF4/AMP-activated protein kinase gamma subunit)	DRSC13463	0.18		-0.6	0.05	inactive
45	SNF4Agamma (SNF4/AMP-activated protein kinase gamma subunit)	DRSC15879	-0.53		0.94	-0.77	inactive
46	SNF4Agamma (SNF4/AMP-activated protein kinase gamma subunit)	DRSC16847	0.2		-0.72	0.52	inactive
47	CG11811	DRSC09862	1.23		-0.95	1.07	inactive
48	Drl-2 (Derailed 2)	DRSC05393	-0.35		0.23	0.15	inactive
49	Drl-2 (Derailed 2)	DRSC06155	-0.53		0.01	0.49	inactive
50	Drl-2 (Derailed 2)	DRSC06858	2.07		-1.38	0.71	inactive
51	Pmvk (Phosphomevalonate kinase)	DRSC02032	-0.53		0.08	0.46	inactive
52	l(2)k01209 (lethal (2) k01209)	DRSC06889	0.14		-0.3	-0.2	inactive
53	l(2)k01209 (lethal (2) k01209)	DRSC29673	1.11		-0.11	-0.44	inactive
54	CG17698	DRSC11907	-0.53		-0.89	0.54	inactive
55	Papss (PAPS synthetase)	DRSC11246	0.01		0.34	-0.14	inactive
56	Papss (PAPS synthetase)	DRSC27101	0.09		-2.55	1.87	inactive
57	CG10177	DRSC14201	-0.42		0.8	-0.61	inactive
58	CG10177	DRSC27888	0.56		-1.92	2.76	inactive
59	png (pan gu)	DRSC18582	0.32		-1.32	1.31	inactive
60	png (pan gu)	DRSC26812	0.14		-2.73	1.89	inactive
61	CG16903	DRSC18561	11.6		-3.09	-0.55	inactive
62	Argp (Arginine phosphatase)	DRSC16510	-0.4		0.86	-0.96	inactive
63	mTor (mechanistic Target of rapamycin)	DRSC02811	0.35		-0.46	0.89	inactive
64	sti (sticky)	DRSC09739	-0.53		-8.59	8.38	inactive
65	sti (sticky)	DRSC09740	-0.53		-8.15	6.08	inactive
66	Nrk (Neurospecific receptor kinase)	DRSC07480	-0.53		0.59	-0.45	inactive
67	mod(mdg4) + pre-mod(mdg4)-U	DRSC13476	-0.09		-1.15	0.96	inactive
68	Nuak (Nuak family kinase)	DRSC14414	-0.53		-1.04	1.05	inactive
69	Nuak (Nuak family kinase)	DRSC14415	0.39		-1.8	2.06	inactive
